US10517867B2, “Posaconazole derivative, pharmaceutical composition and use thereof” (priority 2016, dated 2019)
At least one compound was matched to its structure with a doubt left.

Experiment: Solid stability test (stability chamber, HPLC total impurity)
Format: physicochemical
Settings: packaged, 25° C.±2° C., relative humidity 60%±2%

Structure (SMILES): CC[C@@H](C(C)OC(=O)OC(C)OC(=O)Cc1ccc(OP(=O)([O-])[O-])cc1)n1ncn(-c2ccc(N3CCN(c4ccc(OC[C@@H]5CO[C@@](Cn6cncn6)(c6ccc(F)cc6F)C5)cc4)CC3)cc2)c1=O.[Na+].[Na+] (stereo partly shown) [ST0067]
- Total impurity increment in 30 days: 0.97%
